The values below come from publication PMC10477243.

Amino acid sequences for entries named in this document (tags omitted). Residues count along the entry.
UniProt Q14498, 250-328 H258A/F259A/R289A: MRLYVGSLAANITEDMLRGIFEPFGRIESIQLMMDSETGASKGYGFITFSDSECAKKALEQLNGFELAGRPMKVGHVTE
UniProt Q14498, 250-328 Y253A/H258A/F259A/F295A: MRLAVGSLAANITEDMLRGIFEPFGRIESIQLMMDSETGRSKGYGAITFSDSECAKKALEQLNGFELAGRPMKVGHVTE

Substitutions are numbered along the chain they refer to. For at least one entry, the source does not settle the construct or the ends of the probe. For some of these results: Tags and fusion partners may be left off the protein sequences shown.

Assay in all cases: ITC
(In general: In ITC the heat of successive injections is recorded.)

The target in series [1] is RBM39 RRM2 H258A/F259A/R289A (UniProt Q14498). Particulars: ITC: RRM2/RRM12 in 10 mM Na phosphate pH 6.8, 50 mM NaCl, 2 mM DTT; RRM1 in the same at pH 5.5; 40 C (RRM12 with ssSL3 at 35 C); recombinant protein.
The target of series [2] is RBM39 mRRM2 Y253A,H258A,F259A,F295A (UniProt Q14498). The settings on record: ITC: RRM2/RRM12 in 10 mM Na phosphate pH 6.8, 50 mM NaCl, 2 mM DTT; RRM1 in the same at pH 5.5; 40 C (RRM12 with ssSL3 at 35 C); recombinant protein.
In series [3] the target is T1, RBM39 mRRM1.2 R188A,R191A,R192A,K194A (UniProt Q14498).
T1 sequence (looked up, limits assumed): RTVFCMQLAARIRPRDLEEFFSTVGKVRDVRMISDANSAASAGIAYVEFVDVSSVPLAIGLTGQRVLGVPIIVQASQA
Particulars: ITC: RRM2/RRM12 in 10 mM Na phosphate pH 6.8, 50 mM NaCl, 2 mM DTT; RRM1 in the same at pH 5.5; 40 C (RRM12 with ssSL3 at 35 C); recombinant protein; letters put together from the description.

Series [4] addresses T2, RBM39 mRRM1.1 F156A,Y198A,R192A (UniProt Q14498).
T2 sequence (looked up, limits assumed): T1 sequence (looked up, limits assumed) with F4A, A36R, A39R, A42K, Y46A
Particulars: ITC: RRM2/RRM12 in 10 mM Na phosphate pH 6.8, 50 mM NaCl, 2 mM DTT; RRM1 in the same at pH 5.5; 40 C (RRM12 with ssSL3 at 35 C); recombinant protein; letters put together from the description.

In general, Kd refers to a measure of binding affinity in units of concentration. Regarding AGCUUUG, the Kd in series [1] and in series [2] was greater than 100 µM in each case.
As for “GGGAUUUCCCCAAAUGUGGGAAACUCCC [U1 snRNA SL3]”, the dissociation constant (Kd) in series [3] and in series [4] was greater than 100 µM throughout.
